# From the supplement of paper PMC8728848
# The other results are listed elsewhere or left out.
# B1: TAL6-6LysM (Trichoderma atroviride) (protein)
# chain: AASKLGVPQPAQRDQVNCQLYAVQPNDNCIDISSKNNITYAQLLSWNPSLSSTCSNLASLNSSSICVSNPKGTFSISSNTVGATDIATTTAPVPSPTLDQTTSRCAKYYQVSDGDDCSHLTAQFAITLKDFIFLNSEVWQNCTNLELGYYYCVEPVGYISTYPGYLPTATTKPFNQTSATSLPYDGDPWARFSSNSSVIPIANGTRVDCYSYVYVKNLTENLFADCWNMASMYEITREELVLWNPSLGNDGSSGSNLSGAEASQVASSIAIPTTAPSSITTNLYTYPCTVAANISYCVALVSSTGALPTNTAPPGPHASGEISNCTAWFAPEAYDTCKSILDIFEMSFANFYKMNPSVGPDCSGLAVGTNYCVSTYPNGEDPNDDWDGDDSIPSISPTGIITPTPTQSGMVSNCNKFYDVHSNDGCSAIASSQHVDLSSLYKWNPAIKTDCSGLQASVYVCIGILTTSMSTTSKLPTTTSKPSTTSKPPTGITTPTPTQSGMVKNCNKFYDVHSGDGCSAIASSQKVNLSSFYLWNPAVKTDCSGLQASVFVCIGTLTTSMSTTTSKLPTTTSKPSTTSKPPTGIITPTPTQNGMVKNCNKFYDVHSGDGCSAIASSQKVNLSSFYLWNPAVKTDCSGLQASVFVCVGTATTTTAAGITTPTPTQSGMVSGCNKFYDVHAGDGCSAIASSQKIALSSLYKWNPAVKTDCSGLQASVYICIGVGNAAAARVTGAAASFLEQKLISEEDLNSAVDHHHHHH
# Experiments:
# Experiment in all cases: glycan array binding signal (z-score within array); higher = stronger binding
# Conditions in all cases: glycan notation: IUPAC condensed, linker removed
# [1] = biological target: Gal(b1-4)GlcNAc(b1-3)Gal(b1-4)GlcNAc(b1-2)[Gal(b1-4)GlcNAc(b1-3)Gal(b1-4)GlcNAc(b1-6)]Man(a1-6)[Gal(b1-4)GlcNAc(b1-3)Gal(b1-4)GlcNAc(b1-2)Man(a1-3)]Man(b1-4)GlcNAc(b1-4)GlcNAc
# Summary of the method: (§1)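 Glycan array data came from 3228 arrays in the Consortium for Functional Glycomics database, and only arrays with an available protein sequence were kept. Glycan names were put into IUPAC-condensed notation, and columns mapping to the same glycan were averaged. The binding signal is a within-array Z-score, averaged across arrays of one protein sequence run at different concentrations or buffers and across linkers. A negative Z-score can be read as non-binding.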
# [2] = biological target: Gal(b1-4)GlcNAc(b1-3)Gal(b1-4)GlcNAc(b1-2)[Gal(b1-4)GlcNAc(b1-3)Gal(b1-4)GlcNAc(b1-6)]Man(a1-6)[Gal(b1-4)GlcNAc(b1-3)Gal(b1-4)GlcNAc(b1-2)Man(a1-3)]Man(b1-4)GlcNAc(b1-4)[Fuc(a1-6)]GlcNAc
# Summary of the method: as §1
# [3] = biological target: Gal(b1-4)GlcNAc(b1-3)Gal(b1-4)GlcNAc(b1-3)Gal(b1-4)GlcNAc
# Summary of the method: as §1
# [4] = biological target: Gal(b1-4)GlcNAc(b1-3)Gal(b1-4)GlcNAc(b1-3)Gal(b1-4)GlcNAc(b1-2)Man(a1-3)[Gal(b1-4)GlcNAc(b1-3)Gal(b1-4)GlcNAc(b1-3)Gal(b1-4)GlcNAc(b1-2)Man(a1-6)]Man(b1-4)GlcNAc(b1-4)GlcNAc
# Summary of the method: as §1
# [5] = biological target: Gal(b1-4)GlcNAc(b1-3)Gal(b1-4)GlcNAc(b1-3)Gal(b1-4)GlcNAc(b1-2)Man(a1-3)[Gal(b1-4)GlcNAc(b1-3)Gal(b1-4)GlcNAc(b1-3)Gal(b1-4)GlcNAc(b1-2)Man(a1-6)]Man(b1-4)GlcNAc(b1-4)[Fuc(a1-6)]GlcNAc
# Summary of the method: as §1
# [6] = biological target: Gal(b1-4)GlcNAc(b1-3)Gal(b1-4)GlcNAc(b1-3)Gal(b1-4)GlcNAc(b1-2)[Gal(b1-4)GlcNAc(b1-3)Gal(b1-4)GlcNAc(b1-3)Gal(b1-4)GlcNAc(b1-6)]Man(a1-6)[Gal(b1-4)GlcNAc(b1-3)Gal(b1-4)GlcNAc(b1-3)Gal(b1-4)GlcNAc(b1-2)Man(a1-3)]Man(b1-4)GlcNAc(b1-4)[Fuc(a1-6)]GlcNAc
# Summary of the method: as §1
# [7] = biological target: Gal(b1-4)GlcNAc(b1-3)Gal(b1-4)GlcNAc(b1-3)Gal(b1-4)GlcNAc(b1-3)Gal(b1-4)GlcNAc(b1-2)Man(a1-3)[Gal(b1-4)GlcNAc(b1-3)Gal(b1-4)GlcNAc(b1-3)Gal(b1-4)GlcNAc(b1-3)Gal(b1-4)GlcNAc(b1-2)Man(a1-6)]Man(b1-4)GlcNAc(b1-4)GlcNAc
# Summary of the method: as §1
# [8] = biological target: Gal(b1-4)GlcNAc(b1-3)Gal(b1-4)GlcNAc(b1-3)Gal(b1-4)GlcNAc(b1-3)Gal(b1-4)GlcNAc(b1-2)Man(a1-3)[Gal(b1-4)GlcNAc(b1-3)Gal(b1-4)GlcNAc(b1-3)Gal(b1-4)GlcNAc(b1-3)Gal(b1-4)GlcNAc(b1-2)Man(a1-6)]Man(b1-4)GlcNAc(b1-4)[Fuc(a1-6)]GlcNAc
# Summary of the method: as §1
# [9] = biological target: Gal(b1-4)GlcNAc(b1-3)Gal(b1-4)GlcNAc(b1-3)Gal(b1-4)GlcNAc(b1-3)Gal(b1-4)GlcNAc(b1-2)[Gal(b1-4)GlcNAc(b1-3)Gal(b1-4)GlcNAc(b1-3)Gal(b1-4)GlcNAc(b1-3)Gal(b1-4)GlcNAc(b1-6)]Man(a1-6)[Gal(b1-4)GlcNAc(b1-3)Gal(b1-4)GlcNAc(b1-3)Gal(b1-4)GlcNAc(b1-3)Gal(b1-4)GlcNAc(b1-2)Man(a1-3)]Man(b1-4)GlcNAc(b1-4)[Fuc(a1-6)]GlcNAc
# Summary of the method: as §1
# [10] = biological target: Gal(b1-4)GlcNAc(b1-3)Gal(b1-4)GlcNAc(b1-3)Gal(b1-4)GlcNAc(b1-3)Gal(b1-4)GlcNAc(b1-3)Gal(b1-4)GlcNAc(b1-2)Man(a1-3)[Gal(b1-4)GlcNAc(b1-3)Gal(b1-4)GlcNAc(b1-3)Gal(b1-4)GlcNAc(b1-3)Gal(b1-4)GlcNAc(b1-3)Gal(b1-4)GlcNAc(b1-2)Man(a1-6)]Man(b1-4)GlcNAc(b1-4)GlcNAc
# Summary of the method: as §1
# [11] = biological target: Gal(b1-4)GlcNAc(b1-3)Gal(b1-4)GlcNAc(b1-3)Gal(b1-4)GlcNAc(b1-3)Gal(b1-4)GlcNAc(b1-3)Gal(b1-4)GlcNAc(b1-2)Man(a1-3)[Gal(b1-4)GlcNAc(b1-3)Gal(b1-4)GlcNAc(b1-3)Gal(b1-4)GlcNAc(b1-3)Gal(b1-4)GlcNAc(b1-3)Gal(b1-4)GlcNAc(b1-2)Man(a1-6)]Man(b1-4)GlcNAc(b1-4)[Fuc(a1-6)]GlcNAc
# Summary of the method: as §1
# [12] = biological target: Gal(b1-4)GlcNAc(b1-3)Gal(b1-4)GlcNAc(b1-3)Gal(b1-4)GlcNAc(b1-3)Gal(b1-4)GlcNAc(b1-3)Gal(b1-4)GlcNAc(b1-2)[Gal(b1-4)GlcNAc(b1-3)Gal(b1-4)GlcNAc(b1-3)Gal(b1-4)GlcNAc(b1-3)Gal(b1-4)GlcNAc(b1-3)Gal(b1-4)GlcNAc(b1-6)]Man(a1-6)[Gal(b1-4)GlcNAc(b1-3)Gal(b1-4)GlcNAc(b1-3)Gal(b1-4)GlcNAc(b1-3)Gal(b1-4)GlcNAc(b1-3)Gal(b1-4)GlcNAc(b1-2)Man(a1-3)]Man(b1-4)GlcNAc(b1-4)[Fuc(a1-6)]GlcNAc
# Summary of the method: as §1
# [13] = biological target: Gal(b1-4)GlcNAc(b1-3)Gal(b1-4)GlcNAc(b1-3)Gal(b1-4)GlcNAc(b1-3)Gal(b1-4)GlcNAc(b1-3)Gal(b1-4)GlcNAc(b1-3)Gal(b1-4)GlcNAc(b1-2)Man(a1-3)[Gal(b1-4)GlcNAc(b1-3)Gal(b1-4)GlcNAc(b1-3)Gal(b1-4)GlcNAc(b1-3)Gal(b1-4)GlcNAc(b1-3)Gal(b1-4)GlcNAc(b1-3)Gal(b1-4)GlcNAc(b1-2)Man(a1-6)]Man(b1-4)GlcNAc(b1-4)GlcNAc
# Summary of the method: as §1
# [14] = biological target: Gal(b1-4)GlcNAc(b1-3)Gal(b1-4)GlcNAc(b1-3)GalNAc
# Summary of the method: as §1
# [15] = biological target: Gal(b1-4)GlcNAc(b1-3)Gal(b1-4)GlcNAc(b1-3)[Gal(b1-4)GlcNAc(b1-3)Gal(b1-4)GlcNAc(b1-6)]GalNAc
# Summary of the method: as §1
# [16] = biological target: Gal(b1-4)GlcNAc(b1-3)Gal(b1-4)GlcNAc(b1-6)[Gal(b1-3)]GalNAc
# Summary of the method: as §1
# [17] = biological target: Gal(b1-4)GlcNAc(b1-3)Gal(b1-4)[Fuc(a1-3)]GlcNAc(b1-3)Gal(b1-4)[Fuc(a1-3)]GlcNAc
# Summary of the method: as §1
# [18] = biological target: Gal(b1-4)GlcNAc(b1-3)GalNAc
# Summary of the method: as §1
# [19] = biological target: Gal(b1-4)GlcNAc(b1-3)[Fuc(a1-3)GlcNAc(b1-6)]Gal(b1-4)Glc
# Summary of the method: as §1
# [20] = biological target: Gal(b1-4)GlcNAc(b1-3)[Gal(b1-4)GlcNAc(b1-6)]Gal(b1-4)GlcNAc
# Summary of the method: as §1
# [21] = biological target: Gal(b1-4)GlcNAc(b1-3)[GlcNAc(b1-6)]Gal(b1-4)GlcNAc
# Summary of the method: as §1
# [22] = biological target: Gal(b1-4)GlcNAc(b1-6)Gal(b1-4)GlcNAc
# Summary of the method: as §1
# [23] = biological target: Gal(b1-4)GlcNAc(b1-6)GalNAc
# Summary of the method: as §1
# [24] = biological target: Gal(b1-4)GlcNAc(b1-6)[Gal(b1-3)]GalNAc
# Summary of the method: as §1
# [25] = biological target: Gal(b1-4)GlcNAc(b1-6)[Gal(b1-4)GlcNAc(b1-3)]GalNAc
# Summary of the method: as §1
# [26] = biological target: Gal(b1-4)GlcNAc6P
# Summary of the method: as §1
# [27] = biological target: Gal(b1-6)Gal
# Summary of the method: as §1
# [28] = biological target: Gal3S(b1-3)GalNAc
# Summary of the method: as §1
# [29] = biological target: Gal3S(b1-3)GlcNAc
# Summary of the method: as §1
# [30] = biological target: Gal3S(b1-3)[Fuc(a1-4)]GlcNAc
# Summary of the method: as §1
binder,measurement,setting,value
B1,glycan array binding signal (z-score),[1],0.688
same,glycan array binding signal (z-score),[2],-0.077
same,glycan array binding signal (z-score),[3],0.636
same,glycan array binding signal (z-score),[4],-0.179
same,glycan array binding signal (z-score),[5],-0.033
same,glycan array binding signal (z-score),[6],2.09
same,glycan array binding signal (z-score),[7],1.77
same,glycan array binding signal (z-score),[8],-0.764
same,glycan array binding signal (z-score),[9],0.046
same,glycan array binding signal (z-score),[10],-1.11
same,glycan array binding signal (z-score),[11],0.184
same,glycan array binding signal (z-score),[12],0.688
same,glycan array binding signal (z-score),[13],0.243
same,glycan array binding signal (z-score),[14],1.43
same,glycan array binding signal (z-score),[15],0.101
same,glycan array binding signal (z-score),[16],0.642
same,glycan array binding signal (z-score),[17],0.868
same,glycan array binding signal (z-score),[18],0.941
same,glycan array binding signal (z-score),[19],-0.192
same,glycan array binding signal (z-score),[20],1.15
same,glycan array binding signal (z-score),[21],-1.6
same,glycan array binding signal (z-score),[22],-0.256
same,glycan array binding signal (z-score),[23],2
same,glycan array binding signal (z-score),[24],-0.644
same,glycan array binding signal (z-score),[25],1.09
same,glycan array binding signal (z-score),[26],0.257
same,glycan array binding signal (z-score),[27],1.48
same,glycan array binding signal (z-score),[28],0.856
same,glycan array binding signal (z-score),[29],0.216
same,glycan array binding signal (z-score),[30],0.693
